PubChem BioAssay AID743121 – NCATS, 2013
Here is one part, drawn at random, of about 26,000 deposited reagents. In the full data, 167 (0.63%) were called active. 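Calls are per gene from RSA p-values that are not deposited; an individual active-marked siRNA can sensitise only weakly.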 The numbers tell different reagents against one gene apart.

- Test: 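Partners whose loss is lethal together with topoisomerase I blockade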 (primary screen)
- System: MDA-MB-231 cells, a human breast cancer line
- Reagent: single siRNA against human genes, 20 nM siRNA (0.8 pmol per well)
- Timing: 120 h (drug added 48 h after transfection, read 72 h later)
- Treatment: camptothecin 20 nM (about EC30) for 72 h; vehicle 0.1% DMSO in parallel plates
- Read-out: 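Cell viability by ATP luminescence (CellTiter-Glo) as % of non-targeting siRNA wells, and the log2 ratio of viability without drug over viability with camptothecin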
- Reading the numbers: log2 vehicle/camptothecin viability: higher = stronger sensitisation to camptothecin; viability with camptothecin and viability without drug: higher = more viable cells
- Hit rule: 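Each gene scored by redundant siRNA activity (RSA) over its individual siRNA ratios; a gene is called active at p < 0.001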

| gene | siRNA no. | log2 vehicle/camptothecin viability | viability with camptothecin (% of control) | viability without drug (% of control) | Call |
| --- | --- | --- | --- | --- | --- |
| ADGRF3 | 1 | -0.0778 | 117 | 111 | inactive |
| ADGRF3 | 2 | -0.386 | 104 | 79.6 | inactive |
| ADGRF3 | 3 | -0.34 | 97.1 | 76.7 | inactive |
| ADGRF3 | 4 | -0.0349 | 71.1 | 69.4 | inactive |
| PPP1R3C | 1 | -0.22 | 99.4 | 85.3 | inactive |
| PPP1R3C | 2 | -0.181 | 95.9 | 84.6 | inactive |
| PPP1R3C | 3 | -0.423 | 83.4 | 62.2 | inactive |
| PPP1R3C | 4 | -0.065 | 85.9 | 82.1 | inactive |
| MAPK10 | 1 | -0.108 | 84.6 | 78.6 | inactive |
| MAPK10 | 2 | -0.568 | 85.9 | 57.9 | inactive |
| MAPK10 | 3 | -0.343 | 104 | 82.3 | inactive |
| MAPK10 | 4 | -0.155 | 98.6 | 88.5 | inactive |
| CYB5R1 | 1 | -0.294 | 72.8 | 59.4 | inactive |
| CYB5R1 | 2 | 0.421 | 58.9 | 78.8 | inactive |
| CYB5R1 | 3 | -0.143 | 113 | 102 | inactive |
| CYB5R1 | 4 | 0.129 | 78.8 | 86.2 | inactive |
| SBF1 | 1 | -0.197 | 138 | 120 | inactive |
| SBF1 | 2 | 0.453 | 43.6 | 59.7 | inactive |
| SBF1 | 3 | -0.603 | 100 | 65.9 | inactive |
| SBF1 | 4 | 0.00484 | 51.9 | 52.1 | inactive |

6 entries already listed, arranged by “viability without drug (% of control)”, high to low.
| gene | siRNA no. | log2 vehicle/camptothecin viability | viability with camptothecin (% of control) | viability without drug (% of control) | Call |
| --- | --- | --- | --- | --- | --- |
| SBF1 | 1 | -0.197 | 138 | 120 | inactive |
| CYB5R1 | 3 | -0.143 | 113 | 102 | inactive |
| MAPK10 | 4 | -0.155 | 98.6 | 88.5 | inactive |
| CYB5R1 | 4 | 0.129 | 78.8 | 86.2 | inactive |
| CYB5R1 | 2 | 0.421 | 58.9 | 78.8 | inactive |
| CYB5R1 | 1 | -0.294 | 72.8 | 59.4 | inactive |

The list goes on:
| gene | siRNA no. | log2 vehicle/camptothecin viability | viability with camptothecin (% of control) | viability without drug (% of control) | Call |
| --- | --- | --- | --- | --- | --- |
| PYGO2 | 1 | -0.553 | 57.7 | 39.3 | inactive |
| PYGO2 | 2 | -0.241 | 97.2 | 82.2 | inactive |
| PYGO2 | 3 | -0.737 | 75 | 45 | inactive |
| PYGO2 | 4 | -0.374 | 45.9 | 35.4 | inactive |
| CKAP5 | 1 | -0.336 | 36.5 | 28.9 | inactive |
| CKAP5 | 2 | -0.807 | 47.3 | 27 | inactive |
| CKAP5 | 3 | -0.47 | 34.2 | 24.7 | inactive |
| KLF13 | 1 | -0.0718 | 105 | 99.5 | inactive |
| KLF13 | 2 | -0.139 | 108 | 98.3 | inactive |
| KLF13 | 3 | 0.277 | 37.9 | 45.9 | inactive |
| KLF13 | 4 | -0.0508 | 107 | 103 | inactive |
| MITF | 1 | -0.202 | 70.2 | 61 | inactive |
| MITF | 2 | 0.0208 | 78.3 | 79.4 | inactive |
| MITF | 3 | 0.115 | 90.6 | 98.1 | inactive |
| MITF | 4 | -0.081 | 67.1 | 63.4 | inactive |
| BPIFB6 | 1 | 0.967 | 41.1 | 80.3 | inactive |
| BPIFB6 | 2 | -0.869 | 52.9 | 29 | inactive |
| BPIFB6 | 3 | -0.229 | 74.9 | 63.9 | inactive |
| DNASE1L3 | 1 | 0.078 | 82.6 | 87.2 | inactive |
| DNASE1L3 | 2 | 0.152 | 65 | 72.2 | inactive |
| DNASE1L3 | 3 | -0.279 | 72.3 | 59.6 | inactive |
| DNASE1L3 | 4 | -0.0804 | 32.5 | 30.7 | inactive |
| CCL4L2 | 1 | 0.017 | 67.1 | 67.9 | inactive |
| CCL4L2 | 2 | 0.00593 | 93.6 | 94 | inactive |
| IMPG2 | 1 | -0.273 | 88.7 | 73.5 | inactive |
| IMPG2 | 2 | 0.0586 | 96.5 | 100 | inactive |
| IMPG2 | 3 | -0.0564 | 79.9 | 76.9 | inactive |
| IMPG2 | 4 | 0.123 | 95.8 | 104 | inactive |
